{"source": "patent US6339716B1", "about": "“Method for determining viability of a myocardial segment” (Bioenergy Inc., priority 1999, dated 2002)", "system": "patients suspected of having stunned or hibernating myocardium", "experiment": "Improvement of ejection fraction during dobutamine echocardiography for prediction of improvement in ejection fraction after CABG", "format": "in vivo", "conditions": "dobutamine plus D-Ribose, prediction of EF improvement following CABG, 11 patients", "protocol": "After completion of the baseline echocardiography, intravenous infusion of test article (D-Ribose or placebo) at a set infusion, along with an infusion of 5% glucose in water (D5W) at 100 ml/hour as a maintenance fluid was initiated. D-Ribose, 10% in water at 180 mg/kg/hour, or placebo D5W at 1.8 mg/kg/hour, were given as sterile, pyrogen-free solutions. After the test article had been administered for one, two, three or four hours, a resting echocardiogram was obtained. At completion of this rest period, dobutamine was infused. Dobutamine hydrochloride (Dobutrex® solution, Eli Lilly, Indianapolis ) was mixed in D5W (5% dextrose in water), giving a concentration of 1.0 mg/ml. During echocardiography, dobutamine was administered at an initial dose of 5 μg/kg/minute for three minutes. The dose of dobutamine was then increased to 10 μg/kg/min and infused for three minutes. Echocardiograms were obtained at the low dose stages and at peak stage. Every three minutes the concentration of dobutamine was increased by 10 μg/kg/minute increments until the standard endpoint was reached. The standard endpoint was set to be a greater than 2 mm ST-segment depression on ECG; significant side effects or arrhythmias; achievement of 85% of the age-predicted maximal heart rate; a systolic blood pressure >250 mm Hg, a significant fall in systolic blood pressure or a maximal dose of 50 μg/kg/minute. The Day 1 and Day 2 dobutamine echocardiograms comprised of resting, 5, 10 μg/kg/minute, and peak dose images were stored and reviewed using the procedures and equipment previously described for the AM and PM images, except that side by side comparison was not performed. Using the previously described scoring system, regional wall motion was graded by consensus by two blinded investigators. Hyperdynamic wall motion during dobutamine infusion was scored as one normal wall motion. A one grade improvement of wall motion during dobutamine infusion was considered significant. Global wall motion scores were derived for each stage of the dobutamine echocardiogram. During low-dose dobutamine infusion (5μ/kg/minute), wall motion improved in more segments on D-Ribose than placebo (65 segments v. 48 segments ). Eleven patients subsequently underwent CABG after completion of Study Day 2. At least one echocardiogram was obtained postoperatively in each of these subjects. Regional wall motion was compared between the follow-up echocardiogram and the Day 1 AM study by two blinded investigators. A single, blinded investigator made determinations of ejection fraction on the AM, PM, dobutamine and any post-revascularization echocardiograms using the four-chamber view and the Simpson's method. Table II summarizes the sensitivity, specificity and accuracy of improvemnent of ejection fraction during dobutamine plus D-Ribose versus dobutamine plus placebo for prediction of improvement in ejection fraction after CABG. Significant improvement is defined as Post-bypass ejection fraction increase ≧10% for analysis 2. The accuracy of dobutamine plus D-Ribose in identifying patients with an increase in ejection fraction (EF) following surgery of greater than or equal to 10% is shown in Table II. […] Eight of the nine, or 89% had been diagnosed using ribose. […] The accuracy of a greater than ten percent improvement in EF after bypass was 73% for dobutamine plus D-Ribose compared to 27% for dobutamine plus placebo. Therefore, the addition of D-Ribose to dobutamine for identification of hibernating or stunned myocardium confers an advantage over the dobutamine alone.", "data": [{"smiles": "O=C[C@H](O)[C@H](O)[C@H](O)CO", "note": "[D-Ribose]", "values": [{"measurement": "Accuracy, Analysis 1: EF Increase ≧ 5%", "value": "82 (9/11) %"}, {"measurement": "Accuracy, Analysis 2: EF Increase ≧ 10%", "value": 73, "unit": "%"}, {"measurement": "Sensitivity, Analysis 2: EF Increase ≧ 10%", "value": "57% (4/7)"}, {"measurement": "Specificity, Analysis 1: EF Increase ≧ 5%", "value": "50 (1/2) %"}, {"measurement": "Specificity, Analysis 2: EF Increase ≧ 10%", "value": "100 (4/4) %"}, {"measurement": "Accuracy, Analysis 2: EF Increase ≧ 10%", "setting": "listed as Ribose", "value": "73 (8/11) %"}, {"measurement": "Sensitivity, Analysis 1: EF Increase ≧ 5%", "setting": "listed as Ribose", "value": "89% (8/9)"}, {"measurement": "Sensitivity, Analysis 1: EF Increase ≧ 5%", "setting": "listed as ribose", "value": 89, "unit": "%"}]}]}
